In US20170280720A1, “ARGININE […] INHIBITORS AND USES THEREOF” (EPIZYME, INC., priority 2014, published 2017):
For at least one compound, name, drawing or mass did not settle the structure.

By UniProt entry, the sequences of proteins in these tests, tags left out.
UniProt O14744, whole entry, species assumed: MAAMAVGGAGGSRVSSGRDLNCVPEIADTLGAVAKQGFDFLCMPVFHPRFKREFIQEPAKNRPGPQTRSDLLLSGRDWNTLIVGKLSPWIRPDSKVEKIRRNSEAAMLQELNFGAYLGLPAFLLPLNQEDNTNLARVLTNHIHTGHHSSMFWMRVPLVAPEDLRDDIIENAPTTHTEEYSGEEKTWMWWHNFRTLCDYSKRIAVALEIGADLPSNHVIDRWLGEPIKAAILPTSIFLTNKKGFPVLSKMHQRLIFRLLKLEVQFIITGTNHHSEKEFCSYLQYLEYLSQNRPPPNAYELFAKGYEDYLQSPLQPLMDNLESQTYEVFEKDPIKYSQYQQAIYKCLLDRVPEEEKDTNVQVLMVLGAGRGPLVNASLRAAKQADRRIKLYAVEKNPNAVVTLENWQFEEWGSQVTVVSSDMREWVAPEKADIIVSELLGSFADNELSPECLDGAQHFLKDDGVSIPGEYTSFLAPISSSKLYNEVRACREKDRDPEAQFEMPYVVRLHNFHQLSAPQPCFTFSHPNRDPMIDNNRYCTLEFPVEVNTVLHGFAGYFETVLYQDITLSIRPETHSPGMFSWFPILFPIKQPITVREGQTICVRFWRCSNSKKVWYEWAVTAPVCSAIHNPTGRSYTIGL

Target: PRMT5 (Homo sapiens, UniProt O14744)
Assay: PRMT5 IC50 (Table 2; no method described)
Assay type: biochemical
Conditions: read-out: PRMT5_ IC50

| Structure (SMILES) | IC50 [µM] |
| --- | --- |
| Cc1cc(C)c(CNC(=O)c2cncc(-c3cccc(CN(C)CCN)c3)c2)c(=O)[nH]1 [Compound 380] | ≥ 50 |
| CNCCN(C)Cc1cccc(-c2cncc(C(=O)NCc3c(C)cc(C)[nH]c3=O)c2)c1 [Compound 375] | ≥ 50 |
